Experimental findings from the supplement of paper PMC12819154, “High-throughput peptide-centric local stability assay extends protein–ligand identification to membrane proteins, tissues and bacteria” (Nature Structural & Molecular Biology, 2025) are described below.

Protein sequences, listed by entry. Tags and fused reporters are not part of them. Lines headed by an entry give the natural chain unless they say otherwise; changes in a name come on top.
UniProt Q9BQ65: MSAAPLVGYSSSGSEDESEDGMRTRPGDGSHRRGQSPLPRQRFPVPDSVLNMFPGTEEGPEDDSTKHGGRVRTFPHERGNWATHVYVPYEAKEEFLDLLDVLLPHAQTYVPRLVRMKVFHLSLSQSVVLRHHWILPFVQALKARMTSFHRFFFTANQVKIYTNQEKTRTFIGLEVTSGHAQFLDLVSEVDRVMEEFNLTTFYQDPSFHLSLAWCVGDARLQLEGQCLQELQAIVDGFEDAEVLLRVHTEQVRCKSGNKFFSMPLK
UniProt Q9BRZ2: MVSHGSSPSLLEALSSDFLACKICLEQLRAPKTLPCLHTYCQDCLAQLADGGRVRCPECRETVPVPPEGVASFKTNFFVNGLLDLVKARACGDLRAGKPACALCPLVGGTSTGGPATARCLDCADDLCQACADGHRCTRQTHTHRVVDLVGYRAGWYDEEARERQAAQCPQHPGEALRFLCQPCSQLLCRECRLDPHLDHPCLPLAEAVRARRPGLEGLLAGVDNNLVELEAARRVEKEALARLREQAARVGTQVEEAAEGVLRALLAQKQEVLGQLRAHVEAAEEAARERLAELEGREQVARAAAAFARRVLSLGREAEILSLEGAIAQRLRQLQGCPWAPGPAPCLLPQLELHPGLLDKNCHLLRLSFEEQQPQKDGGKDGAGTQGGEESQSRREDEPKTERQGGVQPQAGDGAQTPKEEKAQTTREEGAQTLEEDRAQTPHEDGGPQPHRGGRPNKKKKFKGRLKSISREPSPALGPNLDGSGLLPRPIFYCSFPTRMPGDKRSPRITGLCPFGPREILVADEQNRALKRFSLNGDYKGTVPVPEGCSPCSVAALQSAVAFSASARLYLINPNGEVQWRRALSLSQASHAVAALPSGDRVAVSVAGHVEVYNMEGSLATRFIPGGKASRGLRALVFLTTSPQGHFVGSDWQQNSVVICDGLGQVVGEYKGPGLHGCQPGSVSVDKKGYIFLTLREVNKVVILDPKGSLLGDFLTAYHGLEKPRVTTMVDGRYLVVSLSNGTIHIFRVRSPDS
UniProt Q9BQC3: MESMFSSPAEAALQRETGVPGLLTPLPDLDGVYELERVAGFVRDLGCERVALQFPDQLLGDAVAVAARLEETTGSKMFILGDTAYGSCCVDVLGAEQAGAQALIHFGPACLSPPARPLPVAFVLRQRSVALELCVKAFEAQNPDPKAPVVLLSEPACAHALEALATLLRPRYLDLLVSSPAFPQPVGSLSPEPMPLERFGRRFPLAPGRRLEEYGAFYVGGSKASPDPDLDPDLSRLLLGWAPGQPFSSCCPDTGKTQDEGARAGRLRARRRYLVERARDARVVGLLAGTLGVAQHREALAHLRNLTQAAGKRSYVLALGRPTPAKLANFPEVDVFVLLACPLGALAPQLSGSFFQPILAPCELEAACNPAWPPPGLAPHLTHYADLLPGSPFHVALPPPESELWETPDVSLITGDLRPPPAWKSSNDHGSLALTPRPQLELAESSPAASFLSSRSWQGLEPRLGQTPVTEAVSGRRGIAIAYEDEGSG
UniProt Q99551: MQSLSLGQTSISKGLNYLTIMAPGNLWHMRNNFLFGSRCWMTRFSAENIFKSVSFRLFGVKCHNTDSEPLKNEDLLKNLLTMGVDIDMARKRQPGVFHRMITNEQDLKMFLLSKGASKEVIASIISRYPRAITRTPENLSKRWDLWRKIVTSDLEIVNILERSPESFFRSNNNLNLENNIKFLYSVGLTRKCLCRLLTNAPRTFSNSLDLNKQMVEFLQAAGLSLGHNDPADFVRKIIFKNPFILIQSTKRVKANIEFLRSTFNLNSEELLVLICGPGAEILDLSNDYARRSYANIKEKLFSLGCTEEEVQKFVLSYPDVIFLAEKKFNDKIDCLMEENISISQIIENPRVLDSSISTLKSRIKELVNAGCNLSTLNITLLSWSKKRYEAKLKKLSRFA
UniProt Q9BTX1: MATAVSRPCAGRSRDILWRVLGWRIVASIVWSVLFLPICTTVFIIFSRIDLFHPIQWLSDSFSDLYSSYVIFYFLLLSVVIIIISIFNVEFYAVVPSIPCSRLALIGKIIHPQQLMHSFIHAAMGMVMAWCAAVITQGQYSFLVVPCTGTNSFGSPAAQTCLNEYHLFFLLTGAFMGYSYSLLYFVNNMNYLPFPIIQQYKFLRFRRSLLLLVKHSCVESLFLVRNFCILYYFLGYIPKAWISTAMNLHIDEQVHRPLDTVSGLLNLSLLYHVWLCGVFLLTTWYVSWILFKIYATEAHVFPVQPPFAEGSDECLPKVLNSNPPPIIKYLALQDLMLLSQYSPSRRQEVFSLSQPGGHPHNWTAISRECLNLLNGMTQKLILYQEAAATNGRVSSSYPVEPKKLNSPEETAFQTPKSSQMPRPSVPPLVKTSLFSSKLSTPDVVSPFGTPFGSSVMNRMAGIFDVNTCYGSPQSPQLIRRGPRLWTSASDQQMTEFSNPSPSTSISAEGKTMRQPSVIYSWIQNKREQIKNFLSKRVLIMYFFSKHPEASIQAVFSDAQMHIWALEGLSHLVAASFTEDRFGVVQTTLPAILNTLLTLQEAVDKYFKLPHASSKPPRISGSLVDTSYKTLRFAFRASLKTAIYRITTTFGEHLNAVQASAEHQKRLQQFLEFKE
UniProt Q9BRT6: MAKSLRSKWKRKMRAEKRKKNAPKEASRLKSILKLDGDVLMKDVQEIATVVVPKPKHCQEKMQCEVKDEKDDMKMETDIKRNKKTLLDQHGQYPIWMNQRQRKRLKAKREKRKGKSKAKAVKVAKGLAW
UniProt Q99567: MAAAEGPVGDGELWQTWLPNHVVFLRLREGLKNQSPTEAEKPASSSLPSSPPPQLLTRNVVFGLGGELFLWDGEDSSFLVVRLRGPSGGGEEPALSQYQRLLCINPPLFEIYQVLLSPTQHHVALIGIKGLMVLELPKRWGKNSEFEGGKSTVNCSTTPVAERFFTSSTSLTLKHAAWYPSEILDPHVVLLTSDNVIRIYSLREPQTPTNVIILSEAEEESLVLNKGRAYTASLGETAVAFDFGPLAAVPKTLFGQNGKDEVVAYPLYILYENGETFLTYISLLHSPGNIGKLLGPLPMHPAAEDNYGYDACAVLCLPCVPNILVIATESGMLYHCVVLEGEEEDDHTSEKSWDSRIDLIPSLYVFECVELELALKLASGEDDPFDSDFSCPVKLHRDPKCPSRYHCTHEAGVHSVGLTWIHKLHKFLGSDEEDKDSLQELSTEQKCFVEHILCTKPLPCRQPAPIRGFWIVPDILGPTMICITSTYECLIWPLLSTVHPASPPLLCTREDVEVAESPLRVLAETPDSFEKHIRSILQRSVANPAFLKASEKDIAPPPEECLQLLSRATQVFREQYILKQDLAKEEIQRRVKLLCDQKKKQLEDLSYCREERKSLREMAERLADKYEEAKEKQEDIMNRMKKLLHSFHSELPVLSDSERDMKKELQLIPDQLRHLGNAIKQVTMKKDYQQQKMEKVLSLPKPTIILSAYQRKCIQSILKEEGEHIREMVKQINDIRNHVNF
UniProt Q99961: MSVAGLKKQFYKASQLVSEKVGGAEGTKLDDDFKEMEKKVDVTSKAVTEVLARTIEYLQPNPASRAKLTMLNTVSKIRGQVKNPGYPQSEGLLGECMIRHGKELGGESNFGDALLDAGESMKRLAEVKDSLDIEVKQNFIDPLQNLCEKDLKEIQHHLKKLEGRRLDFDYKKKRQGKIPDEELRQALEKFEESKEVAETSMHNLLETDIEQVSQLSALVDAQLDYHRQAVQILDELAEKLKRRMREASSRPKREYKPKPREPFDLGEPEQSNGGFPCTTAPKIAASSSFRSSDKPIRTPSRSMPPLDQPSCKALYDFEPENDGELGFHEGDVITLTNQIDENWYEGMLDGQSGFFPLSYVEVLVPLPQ
UniProt Q9BT23: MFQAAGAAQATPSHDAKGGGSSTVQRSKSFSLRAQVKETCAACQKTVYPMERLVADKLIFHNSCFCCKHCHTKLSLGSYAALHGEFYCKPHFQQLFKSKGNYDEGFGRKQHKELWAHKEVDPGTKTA
UniProt Q99590: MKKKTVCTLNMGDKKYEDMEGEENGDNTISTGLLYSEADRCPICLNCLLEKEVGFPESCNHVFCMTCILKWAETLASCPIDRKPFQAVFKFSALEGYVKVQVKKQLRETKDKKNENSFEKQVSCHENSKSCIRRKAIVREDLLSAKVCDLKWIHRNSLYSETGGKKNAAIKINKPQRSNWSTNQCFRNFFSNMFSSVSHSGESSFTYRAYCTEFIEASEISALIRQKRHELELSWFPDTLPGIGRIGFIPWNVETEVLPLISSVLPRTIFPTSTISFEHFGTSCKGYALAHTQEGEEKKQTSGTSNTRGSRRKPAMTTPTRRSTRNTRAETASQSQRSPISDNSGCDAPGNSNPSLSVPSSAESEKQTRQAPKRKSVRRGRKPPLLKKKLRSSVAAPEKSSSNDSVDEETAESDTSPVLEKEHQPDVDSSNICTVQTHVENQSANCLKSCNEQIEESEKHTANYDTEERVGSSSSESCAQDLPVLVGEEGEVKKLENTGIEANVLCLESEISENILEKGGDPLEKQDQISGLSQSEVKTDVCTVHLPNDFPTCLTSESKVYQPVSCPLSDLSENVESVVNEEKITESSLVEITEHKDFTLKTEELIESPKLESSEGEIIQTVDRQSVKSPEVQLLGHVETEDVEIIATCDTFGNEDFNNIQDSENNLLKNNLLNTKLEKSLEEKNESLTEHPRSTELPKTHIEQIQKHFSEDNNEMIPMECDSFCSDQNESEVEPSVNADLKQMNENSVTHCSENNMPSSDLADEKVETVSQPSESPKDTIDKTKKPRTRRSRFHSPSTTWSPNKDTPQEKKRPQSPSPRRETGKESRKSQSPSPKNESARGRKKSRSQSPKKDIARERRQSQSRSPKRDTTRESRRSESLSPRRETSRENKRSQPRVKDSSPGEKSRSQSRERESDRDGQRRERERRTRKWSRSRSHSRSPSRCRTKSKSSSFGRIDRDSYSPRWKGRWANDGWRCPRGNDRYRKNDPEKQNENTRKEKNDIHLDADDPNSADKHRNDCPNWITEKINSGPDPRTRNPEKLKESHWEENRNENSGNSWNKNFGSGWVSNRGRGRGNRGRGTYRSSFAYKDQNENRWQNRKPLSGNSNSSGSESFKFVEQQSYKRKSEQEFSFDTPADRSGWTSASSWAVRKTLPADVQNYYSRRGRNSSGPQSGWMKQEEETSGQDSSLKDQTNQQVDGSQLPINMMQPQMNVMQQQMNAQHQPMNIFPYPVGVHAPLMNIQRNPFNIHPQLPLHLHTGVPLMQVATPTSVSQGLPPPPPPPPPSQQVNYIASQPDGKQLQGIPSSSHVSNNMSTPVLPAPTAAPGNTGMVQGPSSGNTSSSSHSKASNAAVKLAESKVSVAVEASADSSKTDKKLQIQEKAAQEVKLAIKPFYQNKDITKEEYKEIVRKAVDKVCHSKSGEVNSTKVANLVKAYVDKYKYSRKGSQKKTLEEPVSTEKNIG
UniProt Q9BSY4: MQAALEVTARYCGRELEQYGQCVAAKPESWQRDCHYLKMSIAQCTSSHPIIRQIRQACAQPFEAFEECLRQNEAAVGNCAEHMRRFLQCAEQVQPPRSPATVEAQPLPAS
UniProt Q9BT30: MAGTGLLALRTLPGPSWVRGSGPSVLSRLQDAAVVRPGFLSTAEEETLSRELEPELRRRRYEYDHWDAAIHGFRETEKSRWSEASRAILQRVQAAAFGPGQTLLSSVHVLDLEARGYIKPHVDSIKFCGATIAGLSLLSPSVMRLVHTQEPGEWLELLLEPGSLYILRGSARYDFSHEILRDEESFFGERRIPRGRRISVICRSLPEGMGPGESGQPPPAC
UniProt Q9BSJ5: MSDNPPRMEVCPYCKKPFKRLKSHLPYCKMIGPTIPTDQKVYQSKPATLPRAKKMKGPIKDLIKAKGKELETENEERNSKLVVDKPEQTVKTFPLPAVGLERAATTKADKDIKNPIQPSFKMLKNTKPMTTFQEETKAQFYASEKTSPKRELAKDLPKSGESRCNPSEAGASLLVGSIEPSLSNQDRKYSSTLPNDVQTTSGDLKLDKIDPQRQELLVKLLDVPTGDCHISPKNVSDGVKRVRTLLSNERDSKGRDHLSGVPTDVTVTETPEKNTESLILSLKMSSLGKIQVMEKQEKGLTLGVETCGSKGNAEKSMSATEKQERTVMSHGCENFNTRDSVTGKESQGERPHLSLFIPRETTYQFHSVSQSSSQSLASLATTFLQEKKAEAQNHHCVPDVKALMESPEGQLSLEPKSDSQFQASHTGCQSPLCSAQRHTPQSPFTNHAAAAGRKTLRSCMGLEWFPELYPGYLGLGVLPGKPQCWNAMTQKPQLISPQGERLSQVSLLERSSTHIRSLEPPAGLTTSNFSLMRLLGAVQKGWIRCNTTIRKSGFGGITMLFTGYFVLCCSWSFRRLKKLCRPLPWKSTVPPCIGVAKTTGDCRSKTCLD
UniProt Q9BU02: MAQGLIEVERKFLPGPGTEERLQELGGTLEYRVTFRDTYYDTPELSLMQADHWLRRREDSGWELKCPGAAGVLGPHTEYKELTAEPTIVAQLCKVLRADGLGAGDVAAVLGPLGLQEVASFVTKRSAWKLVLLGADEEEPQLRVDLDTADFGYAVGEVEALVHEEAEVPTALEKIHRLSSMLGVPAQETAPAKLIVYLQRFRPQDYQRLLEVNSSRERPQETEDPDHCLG

This is one part of the list. Most entries show no effect beyond the scatter of the controls.

Compound in this test: Cc1nc(Nc2ncc(C(=O)Nc3c(C)cccc3Cl)s2)cc(N2CCN(CCO)CC2)n1 [dasatinib]
Put plainly: log2 fold change of tryptic peptide abundance, ligand vs vehicle (limited proteolysis) (log2 ratio); higher = more trypsin-susceptible (destabilized). Particulars: ligand concentration: 5 uM; sample: K562 cleared lysate.
As to “UniProt Q9BRP8 (peptide sequence: LRQVEELQQR, peptide start residue: 161)”, the log2 fold change was found to be 0.27.
Regarding “USB1 (peptide sequence: TRPGDGSHR, peptide start residue: 24) (UniProt Q9BQ65)”, the log2 fold change was -0.295.
The value for “PKP2 (peptide sequence: AHLTVGQAAAGGSGNLLTER, peptide start residue: 317) (UniProt Q99959)” was -0.377.
The result for “MMS19 (peptide sequence: CFAGLLNK, peptide start residue: 760) (UniProt Q96T76)” reads 0.167; that for “VAT1 (peptide sequence: CLVLTGFGGYDKVK, peptide start residue: 50) (UniProt Q99536)”, -0.176.
The result for “MTG1 (peptide sequence: MDLADLTEQQK, peptide start residue: 85) (UniProt Q9BT17)” reads 0.511; that for “TRIM56 (peptide sequence: VEKEALAR, peptide start residue: 236) (UniProt Q9BRZ2)”, -0.5; that for “TSNAX (peptide sequence: TPSSDAQDK, peptide start residue: 165) (UniProt Q99598)”, 0.0977.
In the case of “DPH2 (peptide sequence: VVGLLAGTLGVAQHR, peptide start residue: 283) (UniProt Q9BQC3)”, the log2 fold change was -0.127.
With “UBAC1 (peptide sequence: ERCLKHCAHGSLEDPK, peptide start residue: 41) (UniProt Q9BSL1)”, the log2 fold change came to 1.07.
In the case of “UniProt Q99551 (peptide sequence: KIVTSDLEIVNILER, peptide start residue: 148)”, the log2 fold change turned out to be 0.175.
The result for “NUDT16L1 (peptide sequence: VLNMMPEEK, peptide start residue: 179) (UniProt Q9BRJ7)” reads -0.404; that for “TRMO (peptide sequence: TSEENYLTHSDTAR, peptide start residue: 226) (UniProt Q9BU70)”, 0.74.
Consider “UniProt Q9BTX1 (peptide sequence: SSQMPRPSVPPLVK, peptide start residue: 417)”, for which the log2 fold change was -0.323.
The value for “CLCC1 (peptide sequence: HIGGPESEPPQALRPR, peptide start residue: 362) (UniProt Q96S66)” was 0.418; that for “UniProt Q9BR11 (peptide sequence: MNIQILEDTHK, peptide start residue: 363)” was 0.552; that for “ZKSCAN3 (peptide sequence: QENHGSLVSLGDEK, peptide start residue: 243) (UniProt Q9BRR0)” was 0.117.
The result for “LLPH (peptide sequence: TLLDQHGQYPIWMNQR, peptide start residue: 85) (UniProt Q9BRT6)” reads 0.0466; that for “NUP88 (peptide sequence: LRGPSGGGEEPALSQYQR, peptide start residue: 83) (UniProt Q99567)”, -0.209; that for “MRPL45 (peptide sequence: IVPPWAPPKQPILK, peptide start residue: 265) (UniProt Q9BRJ2)”, -0.0933.
The value for “DDX50 (peptide sequence: NGIDILVGTPGR, peptide start residue: 307) (UniProt Q9BQ39)” was 0.126; that for “MYD88 (peptide sequence: LLDAWQGRPGASVGR, peptide start residue: 74) (UniProt Q99836)” was -0.16; that for “SH3GL1 (peptide sequence: DSLDIEVK, peptide start residue: 129) (UniProt Q99961)” was 0.103.
On to “UniProt Q9BPX6 (peptide sequence: KTADLAPHPEEK, peptide start residue: 88)”, for which the log2 fold change is -0.348.
Regarding “MED10 (peptide sequence: SLLIQELSK, peptide start residue: 107) (UniProt Q9BTT4)”, the log2 fold change is -0.21.
The value for “LIMD2 (peptide sequence: GNYDEGFGR, peptide start residue: 100) (UniProt Q9BT23)” was 0.161; that for “UniProt Q99590 (peptide sequence: VSVAVEASADSSKTDK, peptide start residue: 1360)” was -0.987; that for “RBM4B (peptide sequence: LHVGNISPTCTNQELR, peptide start residue: 80) (UniProt Q9BQ04)” was -0.0101.
For the target “CHCHD5 (peptide sequence: MSIAQCTSSHPIIR, peptide start residue: 39) (UniProt Q9BSY4)”, the log2 fold change is -0.0909.
The result for “CDC6 (peptide sequence: LVLNTAVPDRLPAR, peptide start residue: 162) (UniProt Q99741)” reads -0.251; that for “PKP4 (peptide sequence: TYYSPVYR, peptide start residue: 419) (UniProt Q99569)”, 0.315.
The result for “MIPEP (peptide sequence: EAAEEACR, peptide start residue: 136) (UniProt Q99797)” reads -0.496; that for “ALKBH7 (peptide sequence: TLPGPSWVR, peptide start residue: 11) (UniProt Q9BT30)”, -0.53; that for “ZNF692 (peptide sequence: LGGHMEQWCLLK, peptide start residue: 31) (UniProt Q9BU19)”, -0.699.
The value for “ISCA1 (peptide sequence: TKGDSDEEVIQDGVR, peptide start residue: 69) (UniProt Q9BUE6)” was 0.252; that for “CIB1 (peptide sequence: FCELLPQEQR, peptide start residue: 34) (UniProt Q99828)” was 0.249; that for “C17orf80 (peptide sequence: NPIQPSFK, peptide start residue: 114) (UniProt Q9BSJ5)” was -0.48.
As for “THTPA (peptide sequence: LQELGGTLEYR, peptide start residue: 22) (UniProt Q9BU02)”, the log2 fold change is 0.114.
